{"source": "paper doi:10.1101/551317", "binders": {"B1": {"name": "SWITCH 1/DYAD (SWI1), yeast two-hybrid fusion (protein, UniProt Q9FGN8 1-639)", "chain": "MSSTMFVKRNPIRETTAGKISSPSSPTLNVAVAHIRAGSYYEIDASILPQRSPENLKSIRVVMVSKITASDVSLRYPSMFSLRSHFDYSRMNRNKPMKKRSGGGLLPVFDESHVMASELAGDLLYRRIAPHELSMNRNSWGFWVSSSSRRNKFPRREVVSQPAYNTRLCRAASPEGKCSSELKSGGMIKWGRRLRVQYQSRHIDTRKNKEGEESSRVKDEVYKEEEMEKEEDDDDGNEIGGTKQEAKEITNGNRKRKLIESSTERLAQKAKVYDQKKETQIVVYKRKSERKFIDRWSVERYKLAERNMLKVMKEKNAVFGNSILRPELRSEARKLIGDTGLLDHLLKHMAGKVAPGGQDRFMRKHNADGAMEYWLESSDLIHIRKEAGVKDPYWTPPPGWKLGDNPSQDPVCAGEIRDIREELASLKRELKKLASKKEEEELVIMTTPNSCVTSQNDNLMTPAKEIYADLLKKKYKIEDQLVIIGETLRKMEEDMGWLKKTVDENYPKKPDSTETPLLLEDSPPIQTLEGEVKVVNKGNQITESPQNREKGRKHDQQERSPLSLISNTGFRICRPVGMFAWPQLPALAAATDTNASSPSHRQAYPSPFPVKPLAAKRPLGLTFPFTIIPEEAPKNLFNV"}}, "key": {"[1]": {"biological_target": "T1, SCC3, yeast two-hybrid fusion (Arabidopsis thaliana) (UniProt O82265)", "T1 sequence": "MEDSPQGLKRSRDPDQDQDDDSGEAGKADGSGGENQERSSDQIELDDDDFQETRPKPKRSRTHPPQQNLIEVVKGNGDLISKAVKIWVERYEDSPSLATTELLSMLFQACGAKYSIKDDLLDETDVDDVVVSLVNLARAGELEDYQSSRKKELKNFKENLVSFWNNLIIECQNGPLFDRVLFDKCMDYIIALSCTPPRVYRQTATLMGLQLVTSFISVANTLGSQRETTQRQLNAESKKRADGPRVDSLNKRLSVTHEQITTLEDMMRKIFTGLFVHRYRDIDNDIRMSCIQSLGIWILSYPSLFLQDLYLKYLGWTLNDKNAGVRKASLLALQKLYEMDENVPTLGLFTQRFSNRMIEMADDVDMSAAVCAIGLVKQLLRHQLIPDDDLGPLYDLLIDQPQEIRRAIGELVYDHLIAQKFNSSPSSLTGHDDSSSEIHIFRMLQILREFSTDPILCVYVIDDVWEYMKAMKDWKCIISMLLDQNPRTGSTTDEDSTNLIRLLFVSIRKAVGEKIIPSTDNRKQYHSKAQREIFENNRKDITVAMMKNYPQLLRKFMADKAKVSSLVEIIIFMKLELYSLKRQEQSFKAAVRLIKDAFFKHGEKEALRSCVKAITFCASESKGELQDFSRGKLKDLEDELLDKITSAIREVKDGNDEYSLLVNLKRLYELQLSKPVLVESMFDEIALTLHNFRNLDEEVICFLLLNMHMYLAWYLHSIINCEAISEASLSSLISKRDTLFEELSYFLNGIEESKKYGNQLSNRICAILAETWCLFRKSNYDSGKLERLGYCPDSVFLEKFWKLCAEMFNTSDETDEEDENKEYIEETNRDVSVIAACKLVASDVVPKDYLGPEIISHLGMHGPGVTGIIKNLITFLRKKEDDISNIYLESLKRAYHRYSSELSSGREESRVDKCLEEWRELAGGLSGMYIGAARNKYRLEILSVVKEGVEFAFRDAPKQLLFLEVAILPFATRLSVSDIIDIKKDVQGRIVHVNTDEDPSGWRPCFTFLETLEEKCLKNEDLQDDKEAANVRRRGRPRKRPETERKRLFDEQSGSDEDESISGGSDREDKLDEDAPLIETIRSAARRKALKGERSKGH", "assay": "two-hybrid"}, "[2]": {"biological_target": "T2, WINGS APART-LIKE 1 (WAPL1), yeast two-hybrid fusion (Arabidopsis thaliana) (UniProt F4I7C7)", "T2 sequence": "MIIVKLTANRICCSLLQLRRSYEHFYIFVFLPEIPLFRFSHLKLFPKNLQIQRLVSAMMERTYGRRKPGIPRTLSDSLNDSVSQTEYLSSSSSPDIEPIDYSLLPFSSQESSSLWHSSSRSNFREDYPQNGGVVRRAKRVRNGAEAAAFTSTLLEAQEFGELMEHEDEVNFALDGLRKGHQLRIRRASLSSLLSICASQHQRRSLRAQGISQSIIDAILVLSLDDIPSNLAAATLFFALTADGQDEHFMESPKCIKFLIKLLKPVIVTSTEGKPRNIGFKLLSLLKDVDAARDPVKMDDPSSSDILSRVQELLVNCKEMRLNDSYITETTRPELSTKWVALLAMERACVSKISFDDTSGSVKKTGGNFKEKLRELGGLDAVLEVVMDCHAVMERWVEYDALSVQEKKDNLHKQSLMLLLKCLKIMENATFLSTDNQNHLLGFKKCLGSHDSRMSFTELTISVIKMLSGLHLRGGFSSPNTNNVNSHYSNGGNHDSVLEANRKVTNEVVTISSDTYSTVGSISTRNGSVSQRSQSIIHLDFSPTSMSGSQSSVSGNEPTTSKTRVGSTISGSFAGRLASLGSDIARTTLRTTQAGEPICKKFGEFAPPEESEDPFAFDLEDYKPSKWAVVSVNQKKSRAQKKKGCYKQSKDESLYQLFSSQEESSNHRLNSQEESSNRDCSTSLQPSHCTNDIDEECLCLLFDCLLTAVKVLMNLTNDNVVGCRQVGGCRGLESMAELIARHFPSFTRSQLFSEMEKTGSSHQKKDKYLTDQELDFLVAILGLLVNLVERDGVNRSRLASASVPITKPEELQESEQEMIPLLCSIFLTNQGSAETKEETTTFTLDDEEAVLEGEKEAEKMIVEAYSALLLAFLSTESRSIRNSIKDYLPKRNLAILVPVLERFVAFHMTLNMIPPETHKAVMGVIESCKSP", "assay": "two-hybrid"}}, "note": "These are yes or no findings as the source states them, for the method shown. Sequences can lack the tags named with a protein."}
{"binder": "B1", "values": [{"measurement": "binding", "setting": "[1]", "value": "no binding"}, {"measurement": "binding", "setting": "[2]", "value": "no binding"}]}
